# In paper PMC12040169 (PLOS Biology, 2025):
# The list shows a part of the results.
# Tested on: T1, CTL2-GFP (C. trachomatis L2/434/Bu, GFP-expressing)
# T1 construct: L2/434/Bu, GFP-expressing
# Parameters: species or system HeLa; Intracellular C. trachomatis growth in HeLa cells, bulk GFP fluorescence relative to DMSO
# Conditions: bulk GFP, single well; 28.5 h, 10 µM; inhibitor
row,SMILES,% of control remaining
1,Cc1n[nH]c(C)c1CCC(=O)N/N=C/c1ccc(Cl)cc1Cl [CBK262901],94.983%
2,CCCn1nc(C)c(-c2cncn2CC(C)n2nc(C)cc2C)c1C (centres unmarked) [CBK281793],132.167%
3,COc1cccc(NC(=O)C2C(C(=O)O)C3C=CC2C32CC2)c1 (centres unmarked) [CBK287106],122.166%
4,COc1ccc(NS(=O)(=O)c2c(Cl)cccc2Cl)c(C(=O)NCc2ccccc2)c1 [CBK113952],107.498%
5,Cc1ccc(CN(Cc2ccco2)CC(O)COCc2ccco2)s1 (centres unmarked) [CBK304610],100.285%
6,COCCNC(=O)c1cc(-c2ccccc2C)nc2c1cnn2C(C)C [CBK305392],99.0256%
7,CCC1(CC)OC(NC(C)c2ccccc2F)=NC1=O (centres unmarked) [CBK132018],158.722%
8,CSc1nc(NC(=O)c2ccccc2)cc(N2CCNCC2)n1 [CBK050266T],100%
9,COc1ccc2c(CC(=O)Nc3sccc3C(N)=O)coc2c1 [CBK295137],159.946%
10,Cn1nc(-c2ccc(S(=O)(=O)Nc3nnn[nH]3)s2)cc1C(F)(F)F [CBK062390],141.717%
11,CCOC(=O)Cc1nnc(-c2cccc(C(F)(F)F)c2)[nH]1 [CBK304385],177.713%
12,COc1ccc(-c2cc(C(F)(F)F)nc(S(=O)(=O)CCC(=O)Nc3ccc(C)cc3)n2)cc1 [CBK266235],205.225%
13,CSCCOc1cc(N2CCCC2)ncn1 [CBK115900],126.037%
14,CCN(CC)S(=O)(=O)c1ccc(OC)c(NC(=O)C2c3ccccc3Oc3ccccc32)c1 [CBK264774],124.04%
15,O=C(CSc1ncnc2c1oc1ccccc12)Nc1ccccc1 [CBK057994],147.271%
16,CC(CNS(=O)(=O)c1cc(Cl)ccc1Cl)CN(C)C (centres unmarked) [CBK266808],100.785%
17,CC(C)n1c(SCC(=O)Nc2nc(C(C)(C)C)cs2)nc2c1c(=O)n(C)c(=O)n2C [CBK127417],83.949%
18,O=C(O)CSc1nc2nc3c(cc2c(=O)n1Cc1ccccc1)CCCC3 [CBK286662],117.708%
19,COc1ccccc1NC(=S)NCCN(C)C [CBK265343],108.34%
20,Cn1cccc1CNCc1ccccn1 [CBK269818C],120.985%
21,COc1cnc(-c2ccsc2)c(NC(=O)c2cc(C)oc2C)n1 [CBK145294],146.848%
22,O=C(c1ccco1)N1CCN(c2cc(-c3ccccc3Oc3ccccc3)ncn2)CC1 [CBK037817],147.566%
23,Cc1ccc(C2(CN3CCC(NC(=O)C4CC4)CC3)CC2)cc1 [CBK285359],142.227%

# Rewritten as tab-separated lines: part of the list above
row	SMILES	% of control remaining
17	CC(C)n1c(SCC(=O)Nc2nc(C(C)(C)C)cs2)nc2c1c(=O)n(C)c(=O)n2C [CBK127417]	83.949%
18	O=C(O)CSc1nc2nc3c(cc2c(=O)n1Cc1ccccc1)CCCC3 [CBK286662]	117.708%
